The supplement of paper PMC10849652
The list shows a part of the results. Residues, ends and D or L forms follow the SMILES beside them. *: point of attachment. Cbz = O=C(OCc1ccccc1)*

Sequences of proteins named here, by UniProt entry; tags and fusion partners are left off. A change or cut given only in a name is not applied to a line headed by its entry.
UniProt Q8WYB5, whole entry, looked up: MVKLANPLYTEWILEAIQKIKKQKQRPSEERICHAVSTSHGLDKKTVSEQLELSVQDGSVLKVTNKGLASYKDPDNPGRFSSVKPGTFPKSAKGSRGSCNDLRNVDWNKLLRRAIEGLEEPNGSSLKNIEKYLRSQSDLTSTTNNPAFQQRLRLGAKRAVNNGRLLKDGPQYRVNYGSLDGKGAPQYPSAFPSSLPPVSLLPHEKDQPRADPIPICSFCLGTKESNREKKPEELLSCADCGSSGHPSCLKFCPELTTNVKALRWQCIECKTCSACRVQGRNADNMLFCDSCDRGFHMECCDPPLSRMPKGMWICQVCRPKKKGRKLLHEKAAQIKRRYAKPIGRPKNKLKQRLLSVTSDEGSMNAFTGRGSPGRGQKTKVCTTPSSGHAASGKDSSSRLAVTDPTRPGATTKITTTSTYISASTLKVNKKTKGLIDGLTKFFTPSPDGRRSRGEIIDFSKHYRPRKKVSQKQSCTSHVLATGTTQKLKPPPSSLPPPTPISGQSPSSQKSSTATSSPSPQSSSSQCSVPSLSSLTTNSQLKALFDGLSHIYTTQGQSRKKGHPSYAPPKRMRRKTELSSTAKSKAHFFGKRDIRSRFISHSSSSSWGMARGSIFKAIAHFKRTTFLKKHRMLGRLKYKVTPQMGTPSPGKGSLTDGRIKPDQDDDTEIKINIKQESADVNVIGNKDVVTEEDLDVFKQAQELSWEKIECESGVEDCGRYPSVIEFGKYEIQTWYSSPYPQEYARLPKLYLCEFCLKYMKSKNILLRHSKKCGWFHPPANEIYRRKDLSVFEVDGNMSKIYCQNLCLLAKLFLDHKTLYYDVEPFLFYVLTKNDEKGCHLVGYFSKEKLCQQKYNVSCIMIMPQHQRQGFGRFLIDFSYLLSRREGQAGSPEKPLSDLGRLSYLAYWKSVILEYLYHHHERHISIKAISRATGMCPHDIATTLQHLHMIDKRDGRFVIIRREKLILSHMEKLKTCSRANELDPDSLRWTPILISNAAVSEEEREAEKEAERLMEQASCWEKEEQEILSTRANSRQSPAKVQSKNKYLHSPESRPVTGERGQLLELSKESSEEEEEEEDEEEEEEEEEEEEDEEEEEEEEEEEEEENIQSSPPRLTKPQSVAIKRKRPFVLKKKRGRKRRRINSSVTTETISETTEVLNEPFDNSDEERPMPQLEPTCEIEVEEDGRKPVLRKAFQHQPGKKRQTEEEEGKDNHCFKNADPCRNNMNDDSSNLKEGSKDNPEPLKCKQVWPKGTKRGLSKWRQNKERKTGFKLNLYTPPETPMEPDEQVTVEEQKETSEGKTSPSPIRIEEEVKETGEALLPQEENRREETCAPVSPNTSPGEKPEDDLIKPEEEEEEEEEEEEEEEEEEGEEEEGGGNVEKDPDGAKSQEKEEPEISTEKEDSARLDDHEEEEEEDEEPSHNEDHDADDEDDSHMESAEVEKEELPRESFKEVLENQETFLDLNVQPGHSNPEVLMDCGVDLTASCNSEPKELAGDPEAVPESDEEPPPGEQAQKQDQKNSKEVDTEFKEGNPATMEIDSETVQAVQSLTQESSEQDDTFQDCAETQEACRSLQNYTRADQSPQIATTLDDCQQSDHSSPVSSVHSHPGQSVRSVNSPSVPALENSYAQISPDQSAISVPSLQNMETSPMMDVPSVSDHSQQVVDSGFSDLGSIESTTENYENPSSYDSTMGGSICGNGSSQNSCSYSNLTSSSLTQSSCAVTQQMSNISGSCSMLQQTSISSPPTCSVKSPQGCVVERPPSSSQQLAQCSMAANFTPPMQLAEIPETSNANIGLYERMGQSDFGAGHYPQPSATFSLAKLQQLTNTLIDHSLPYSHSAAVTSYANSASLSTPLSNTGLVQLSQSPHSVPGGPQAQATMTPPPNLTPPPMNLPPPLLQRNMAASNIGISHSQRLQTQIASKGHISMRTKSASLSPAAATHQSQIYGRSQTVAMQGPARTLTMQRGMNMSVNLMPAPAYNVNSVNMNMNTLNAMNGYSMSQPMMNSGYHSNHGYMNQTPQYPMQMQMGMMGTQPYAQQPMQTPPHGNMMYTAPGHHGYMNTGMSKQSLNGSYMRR
UniProt A6NCN2: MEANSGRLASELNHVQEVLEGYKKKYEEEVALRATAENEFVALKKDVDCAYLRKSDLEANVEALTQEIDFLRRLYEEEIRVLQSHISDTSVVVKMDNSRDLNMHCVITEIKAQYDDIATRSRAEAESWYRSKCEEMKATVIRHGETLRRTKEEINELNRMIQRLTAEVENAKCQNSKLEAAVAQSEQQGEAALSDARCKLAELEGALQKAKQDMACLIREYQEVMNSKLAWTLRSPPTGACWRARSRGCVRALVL
UniProt Q5JYT7: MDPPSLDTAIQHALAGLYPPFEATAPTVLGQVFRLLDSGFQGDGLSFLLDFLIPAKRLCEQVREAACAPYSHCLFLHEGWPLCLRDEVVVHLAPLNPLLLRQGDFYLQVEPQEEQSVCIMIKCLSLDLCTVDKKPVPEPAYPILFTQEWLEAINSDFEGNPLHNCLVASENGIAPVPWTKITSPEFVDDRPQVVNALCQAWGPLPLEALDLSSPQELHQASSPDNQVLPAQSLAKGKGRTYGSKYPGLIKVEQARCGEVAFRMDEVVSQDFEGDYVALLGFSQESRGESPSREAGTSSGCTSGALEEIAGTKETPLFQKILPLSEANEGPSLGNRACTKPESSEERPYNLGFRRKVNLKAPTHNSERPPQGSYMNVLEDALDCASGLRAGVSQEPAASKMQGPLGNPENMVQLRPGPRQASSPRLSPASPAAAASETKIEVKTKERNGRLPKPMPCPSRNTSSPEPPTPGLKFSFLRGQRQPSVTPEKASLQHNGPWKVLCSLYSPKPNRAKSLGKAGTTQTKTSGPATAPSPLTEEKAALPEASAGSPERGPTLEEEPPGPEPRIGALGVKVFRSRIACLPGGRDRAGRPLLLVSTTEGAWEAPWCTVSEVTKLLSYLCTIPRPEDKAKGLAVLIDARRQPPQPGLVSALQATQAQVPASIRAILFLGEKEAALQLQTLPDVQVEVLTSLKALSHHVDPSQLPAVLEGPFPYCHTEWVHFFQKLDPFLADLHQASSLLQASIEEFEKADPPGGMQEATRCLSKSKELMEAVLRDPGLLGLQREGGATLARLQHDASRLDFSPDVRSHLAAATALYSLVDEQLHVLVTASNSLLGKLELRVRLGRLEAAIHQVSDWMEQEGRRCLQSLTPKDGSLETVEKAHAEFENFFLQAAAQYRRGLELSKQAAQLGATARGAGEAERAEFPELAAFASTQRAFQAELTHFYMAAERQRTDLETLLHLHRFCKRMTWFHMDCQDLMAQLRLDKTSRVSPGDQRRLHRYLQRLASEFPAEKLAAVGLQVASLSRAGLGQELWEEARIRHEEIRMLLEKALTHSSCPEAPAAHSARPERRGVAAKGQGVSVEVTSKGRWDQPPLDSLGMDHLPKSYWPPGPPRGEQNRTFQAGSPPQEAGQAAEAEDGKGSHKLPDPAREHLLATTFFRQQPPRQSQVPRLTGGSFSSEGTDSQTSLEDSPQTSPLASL
UniProt O95279: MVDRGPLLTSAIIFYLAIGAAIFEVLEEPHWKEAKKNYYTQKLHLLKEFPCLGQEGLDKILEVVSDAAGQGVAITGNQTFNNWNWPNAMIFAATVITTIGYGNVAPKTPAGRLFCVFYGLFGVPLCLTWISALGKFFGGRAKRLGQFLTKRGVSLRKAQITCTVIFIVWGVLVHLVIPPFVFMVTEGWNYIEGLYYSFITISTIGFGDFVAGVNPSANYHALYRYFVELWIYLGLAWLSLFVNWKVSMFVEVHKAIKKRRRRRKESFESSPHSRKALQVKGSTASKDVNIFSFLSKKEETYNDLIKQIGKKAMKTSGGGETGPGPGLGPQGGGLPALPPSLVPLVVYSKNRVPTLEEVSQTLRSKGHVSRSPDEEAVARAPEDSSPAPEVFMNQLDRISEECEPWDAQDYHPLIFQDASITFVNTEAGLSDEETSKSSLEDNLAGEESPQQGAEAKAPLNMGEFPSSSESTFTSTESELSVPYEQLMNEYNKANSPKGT
UniProt Q9BVG8: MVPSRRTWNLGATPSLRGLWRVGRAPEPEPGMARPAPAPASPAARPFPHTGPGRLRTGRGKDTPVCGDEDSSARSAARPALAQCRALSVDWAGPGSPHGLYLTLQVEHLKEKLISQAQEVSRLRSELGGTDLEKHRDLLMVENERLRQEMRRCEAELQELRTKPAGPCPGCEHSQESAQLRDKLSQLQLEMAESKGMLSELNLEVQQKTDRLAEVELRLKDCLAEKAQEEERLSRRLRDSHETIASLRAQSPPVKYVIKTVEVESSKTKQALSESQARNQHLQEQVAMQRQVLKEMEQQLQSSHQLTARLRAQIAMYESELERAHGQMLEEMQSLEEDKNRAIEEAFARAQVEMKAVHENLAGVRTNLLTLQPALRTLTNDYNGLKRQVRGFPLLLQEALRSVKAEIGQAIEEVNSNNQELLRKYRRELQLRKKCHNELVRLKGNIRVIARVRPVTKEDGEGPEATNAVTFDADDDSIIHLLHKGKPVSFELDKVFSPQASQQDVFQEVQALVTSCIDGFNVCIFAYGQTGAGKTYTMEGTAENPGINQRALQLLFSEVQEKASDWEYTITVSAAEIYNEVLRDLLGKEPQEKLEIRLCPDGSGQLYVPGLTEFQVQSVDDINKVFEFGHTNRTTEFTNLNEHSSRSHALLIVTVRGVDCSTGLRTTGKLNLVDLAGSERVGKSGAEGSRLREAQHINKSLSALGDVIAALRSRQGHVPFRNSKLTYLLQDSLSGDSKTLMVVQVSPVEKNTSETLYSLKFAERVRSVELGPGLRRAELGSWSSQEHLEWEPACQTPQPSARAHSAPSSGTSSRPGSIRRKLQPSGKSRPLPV
UniProt Q13351: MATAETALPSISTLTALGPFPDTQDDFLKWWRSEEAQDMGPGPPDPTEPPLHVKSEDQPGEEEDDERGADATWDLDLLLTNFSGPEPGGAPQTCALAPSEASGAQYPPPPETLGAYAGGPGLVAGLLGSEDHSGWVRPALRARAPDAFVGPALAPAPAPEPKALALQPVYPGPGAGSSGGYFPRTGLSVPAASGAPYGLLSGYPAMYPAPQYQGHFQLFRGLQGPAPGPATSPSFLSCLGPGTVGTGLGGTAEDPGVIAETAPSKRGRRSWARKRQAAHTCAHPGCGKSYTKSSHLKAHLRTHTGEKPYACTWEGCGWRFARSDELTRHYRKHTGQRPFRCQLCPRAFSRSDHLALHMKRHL

Columns and labels:
Test in all cases: log2 fold change, soluble protein after heating vs DMSO (PISA); higher = thermal stabilisation; K562 cells, 10 uM, 30 min; active = over 0.2 and 3.5 SD of the protein, either way, in both replicates (recomputed)
ibrutinib = compound: C=CC(=O)N1CCC[C@@H](n2nc(-c3ccc(Oc4ccccc4)cc3)c3c(N)ncnc32)C1 [ibrutinib]
In short: (§1)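 Soluble protein was quantified by TMTpro 16plex LC-MS/MS after channel sums were equalised. It was obtained as the supernatant after 21,000xg for 90 min from pooled aliquots of K562 cells (2×10^6 cells/mL, 10 μM compound, 30 min) heated for 3 min across 48°C-58°C and extracted in PBS with 0.5% NP-40 at 4°C. Thermal stability values are relative to control samples and come from duplicates. They are given as log2 fold changes.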

[1] = compound: CC(=O)c1cnc2ccc(-c3cc(Cl)c(O)c(Cl)c3)nc2c1N[C@H]1CC[C@H](CN(C)C)CC1
In short: as §1

ralimetinib = compound: CC(C)(C)Cn1c(N)nc2ccc(-c3[nH]c(C(C)(C)C)nc3-c3ccc(F)cc3)nc21 [ralimetinib]
In short: as §1

[2] = compound: CC(C)C1=C2N=C(C=C(N2N=C1)NCC3=CC=CC=C3)NCCCCCCN
In short: as §1

[3] = compound: CC(C)C[C@@H](C=O)NC(=O)[C@H](CC(C)C)NC(=O)[C@H](CC(C)C)NC(=O)OCc1ccccc1
In short: as §1

[4] = compound: CC1=C(C(CC(=O)N1)C2=CC=C(C=C2)C(F)(F)F)C(=O)NC3=C(C=C4C(=C3)C=NN4)F
In short: as §1

[5] = compound: CC1=C(C2=C(C=C1)C(=O)C3=CC=CC=C3N2CCCN)C
In short: as §1

[6] = compound: CC1=C(C=C(C=C1)NC(=O)C2=CC(=CC=C2)N(C)C)NC(=O)C3=CC=C(C=C3)O
In short: as §1

[7] = compound: CC1=CC=C(C=C1)SC2=C3C=C(SC3=CN=C2)C(=O)N
In short: as §1

vemurafenib = compound: CCCS(=O)(=O)Nc1ccc(F)c(C(=O)c2c[nH]c3ncc(-c4ccc(Cl)cc4)cc23)c1F [vemurafenib]
In short: as §1

[8] = compound: CCCS(=O)(=O)Nc1ccc(F)c(C(=O)c2c[nH]c3ncc(Cl)cc23)c1F
In short: as §1

[9] = compound: CCCc1cc(C)[nH]c(=O)c1CNC(=O)c1cc(-c2ccnc(N3CCN(C)CC3)c2)cc2c1cnn2C(C)C
In short: as §1

givinostat = compound: CCN(CC)Cc1ccc2cc(COC(=O)Nc3ccc(C(=O)NO)cc3)ccc2c1 [givinostat]
In short: as §1

barasertib = compound: CCN(CCCOc1ccc2c(Nc3cc(CC(=O)Nc4cccc(F)c4)[nH]n3)ncnc2c1)CCOP(=O)(O)O [barasertib]
In short: as §1

IRAK-1-4 Inhibitor I = compound: C1COCCN1CCN2C3=CC=CC=C3N=C2NC(=O)C4=CC(=CC=C4)[N+](=O)[O-] [IRAK-1-4 Inhibitor I]
In short: as §1

[10] = compound: CC(C)(O)CC(=O)NCCn1ccc2ncnc(Nc3ccc(Oc4cccc(C(F)(F)F)c4)c(Cl)c3)c21
In short: as §1

pinometostat = compound: CC(C)N(C[C@H]1O[C@@H](n2cnc3c(N)ncnc32)[C@H](O)[C@@H]1O)[C@H]1C[C@@H](CCc2nc3cc(C(C)(C)C)ccc3[nH]2)C1 [pinometostat]
In short: as §1

[11] = compound: CC1=NC(=CC=C1)C2=C(N=C(N2)C(C)(C)C)C3=CC4=NC=CN=C4C=C3
In short: as §1

Nexturastat A = compound: CCCCN(Cc1ccc(C(=O)NO)cc1)C(=O)Nc1ccccc1 [Nexturastat A]
In short: as §1

[12] = compound: CC1=C(C=C(C=C1)NC(=O)C2=CC(=CC=C2)C(C)(C)C#N)NC3=CC4=C(C=C3)N=CN(C4=O)C
In short: as §1

Measured: log2 fold change

KAT6B (UniProt Q8WYB5)
inactive: ibrutinib 0.056 | [1] 0.069 | ralimetinib -0.033 | [2] 0.112 | [3] 0.021 | [4] 0.134 | [5] -0.063 | [6] 0.021 | [7] -0.183 | vemurafenib -0.055 | [8] -0.04 | [9] -0.021 | givinostat 0.043 | barasertib -0.054

KRT87P (UniProt A6NCN2)
inactive: ibrutinib 0.231 | barasertib 0.078

KIAA1755 (UniProt Q5JYT7)
inactive: IRAK-1-4 Inhibitor I 0.02 | ibrutinib -0.077 | ralimetinib -0.021 | [10] 0.034 | [2] -0.064 | [3] 0.007 | pinometostat -0.021 | [5] 0.105 | [6] -0.012 | [7] -0.021 | [11] 0.024 | Nexturastat A 0.218 | vemurafenib -0.027 | [8] -0.019 | givinostat 0.007 | barasertib 0.002

KCNK5 (UniProt O95279)
active: [2] -2.03
inactive: IRAK-1-4 Inhibitor I -0.033 | ibrutinib 0.019 | [10] -0.209 | pinometostat 0 | [12] -0.114 | [7] 0.195 | [11] 0.084 | Nexturastat A 0.106 | [8] 0.1 | [9] 0.157 | givinostat -0.319 | barasertib 0.097

KIFC3 isoform 6 (UniProt Q9BVG8)
inactive: ibrutinib -0.125 | ralimetinib -0.292 | [10] 0 | [2] -0.073 | [3] 0.273 | [4] 0.044 | [5] -0.112 | [12] -0.15 | [6] -0.023 | Nexturastat A -0.083 | vemurafenib 0.091 | [9] -0.271 | givinostat -0.048 | barasertib 0.032

KLF1 (UniProt Q13351)
inactive: IRAK-1-4 Inhibitor I -0.053 | ibrutinib -0.057 | ralimetinib 0.113 | [3] 0.157 | pinometostat 0.153 | [4] -0.165 | [12] -0.169 | [6] 0.015 | [7] -0.121 | [11] -0.048 | vemurafenib -0.079 | [8] -0.053 | [9] -0.014 | barasertib -0.235
